{"source": "paper PMC4132731", "about": "“Crystal structure of RNase H3–substrate complex reveals parallel evolution of RNA/DNA hybrid recognition”", "biological_target": "T1, Ta-RNase H3 N-domain (Thermovibrio ammonificans) (UniProt E8T217)", "T1 sequence (looked up)": "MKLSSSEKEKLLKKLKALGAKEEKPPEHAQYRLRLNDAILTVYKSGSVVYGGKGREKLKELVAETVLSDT", "test": "EMSA", "conditions": "weak binding; EMSA: 10% native TAE polyacrylamide gel; recombinant protein; residues 1-70; DNA:RNA hybrid", "note": "The exact form of at least one protein or probe is not confirmed. Protein sequences can lack the tags named with them."}
{"sequence": "ACAGAGUGCGACACCUGAUUCCAU / ATGGAATCAGGTGTCGCACTCTGT [24-bp RNA/DNA hybrid]", "values": [{"measurement": "binding result", "value": "binds"}]}
